Consider 30 compounds from the supplement of paper PMC12889115.

This assay deals with Salmonella enterica serovar Typhimurium SL1344. The assay is described as follows: bacterial growth OD600 after 18 h with compound and polymyxin B; higher = more bacterial growth (less inhibition). The conditions noted are these: 50 µM, Mueller-Hinton broth.

The list shows a part of the results. These are raw signals, not scaled to a control.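 Primary screen: polymyxin B was added at a level permeabilizing Salmonella outer membranes while sparing inner membranes. DMSO wells, both with and without polymyxin B, established maximum growth. Plate-to-plate variation meant each plate was ranked on its own, and the lowest-OD600 compounds were selected as hits.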

On to `CN1CCc2cc(CNC(=O)CC3C(=O)NCCN3Cc3cccnc3)ccc21` (stereo not given), for which, for the setting “polymyxin B 1 µg/mL”, the “bacterial growth OD600” value turned out to be 0.89.

As for `COc1ccc(-c2noc(CN(C)Cc3ccc(C)cc3)n2)c(OC)c1OC`, the “bacterial growth OD600” value (polymyxin B 1 µg/mL) turned out to be 0.933.

With `Cc1cccnc1-c1cccc2c1OC(CNC(=O)CC(C)(C)C)C2` (stereo not given), under “polymyxin B 0.75 µg/mL”, the “bacterial growth OD600” value was 0.802.

In the case of `CCOC(=O)C1(CCCc2ccccc2)CCN(C(=O)c2ccc(OC)o2)CC1`, where the note is “polymyxin B 1 µg/mL”, the “bacterial growth OD600” value amounted to 0.001.

Take `O=C(NCc1cc(F)cc(F)c1)C1CCCN(C2CCN(C(=O)C3CC3)CC2)C1` (stereo not given): the “bacterial growth OD600” value (polymyxin B 0.75 µg/mL) came out at 0.785.

With `Cc1cccc(CN2CCC(n3nccc3NC(=O)C3CCCC3)CC2)n1`, the “bacterial growth OD600” value (polymyxin B 1 µg/mL) came out at 1.06.

Consider `O=C(Cn1cnnn1)N1CCc2onc(C(c3ccccc3)c3ccccc3)c2C1`, for which the “bacterial growth OD600” value (polymyxin B 0.75 µg/mL) came to 0.165.

Turning to `COc1cccc(-c2n[nH]c3c2CN(C(=O)c2cc(C)n(C)n2)CC3)c1`, the “bacterial growth OD600” value (polymyxin B 0.75 µg/mL) was 0.739.

For `CCOC(=O)C1CCCCN1C(=O)c1ccc2nc(Cc3ccc(OC)cc3)oc2c1` (stereo not given), the “bacterial growth OD600” value (polymyxin B 1 µg/mL) worked out at 0.758.

With `CCOC(=O)C1(CCCc2ccccc2)CCCN(C(=O)c2ccnn2C)C1` (stereo not given), under “polymyxin B 1 µg/mL”, the “bacterial growth OD600” value came to 0.858.

`CC(C)CC(=O)Nc1ccnn1C1CCN(C(=O)Cc2n[nH]c3ccccc23)CC1`: for the setting “polymyxin B 0.75 µg/mL”, the “bacterial growth OD600” value was 0.855.

For the compound `O=C(Nc1ccnn1C1CCN(C(=O)Cc2c(F)ccc(F)c2F)CC1)C1CC1`, the “bacterial growth OD600” value (polymyxin B 1 µg/mL) was found to be 0.952.

For `O=C(CN1Cc2ccccc2OC(c2ccccc2F)C1)NCCCn1nnc2ccccc21` (stereo not given), the “bacterial growth OD600” value (polymyxin B 0.75 µg/mL) is 0.334.

As for `CN(Cc1ccccc1)c1ncccc1CNC(=O)c1cn2cccnc2n1`, the “bacterial growth OD600” value (polymyxin B 0.75 µg/mL) worked out at 0.702.

In the case of `COc1ccc2ccccc2c1CNC1CCN(c2ccc(C(=O)N3CCOCC3)cc2)CC1`, where the note is “polymyxin B 0.75 µg/mL”, the “bacterial growth OD600” value worked out at 0.804.

Take `COc1ccc(C(=O)N(C)CC2CCN(CCc3ccc(Cl)cc3)CC2)c(OC)n1`: the “bacterial growth OD600” value (polymyxin B 1 µg/mL) worked out at 1.04.

`Cc1ccc(CN2CCC(CN(C)Cc3c[nH]nc3-c3cccc(F)c3)CC2)o1`: the “bacterial growth OD600” value (polymyxin B 1 µg/mL) amounted to 1.26.

As to `O=C(NCC1CCCN(S(=O)(=O)c2cccnc2)C1)c1ccco1` (stereo not given), the “bacterial growth OD600” value (polymyxin B 1 µg/mL) was 0.993.

Take `COc1cccc([C@@H]2C[C@H]3CN(C4CCCC4)C(=O)[C@]34CCCN24)c1`: the “bacterial growth OD600” value (polymyxin B 0.75 µg/mL) stood at 0.981.

For the compound `COc1ccc(OC)c(CC(=O)N2CCOc3ccc(CN(C)CCc4ccccn4)cc3C2)c1`, the “bacterial growth OD600” value (polymyxin B 0.75 µg/mL) worked out at 0.857.

For `CCC1CN(CC(=O)NCC(c2ccccn2)N2CCOCC2)Cc2cc(OC)ccc2O1` (stereo not given), where the note is “polymyxin B 0.75 µg/mL”, the “bacterial growth OD600” value was 0.763.

For `CCC(=O)N[C@@H]1c2ccccc2C2(CCN(Cc3ccc(CO)o3)CC2)[C@H]1OCCOC`, where the note is “polymyxin B 0.75 µg/mL”, the “bacterial growth OD600” value was 0.864.

On to `COC(=O)c1ccc(CN2CCN(CC3CCCCC3)C(CCO)C2)cc1` (stereo not given), for which, under “polymyxin B 1 µg/mL”, the “bacterial growth OD600” value stood at 0.939.

With `COc1ccc(CNC(=O)c2cc(NC(=O)CC3CCCC3)cc3nc(C4CCCO4)n(C)c23)cc1` (stereo not given), the “bacterial growth OD600” value (polymyxin B 0.75 µg/mL) amounted to 0.811.

Consider `Cc1c(CC(=O)NC(C)C2CC2)c2c(n1Cc1ccccc1F)CCCC2=O` (stereo not given), for which, where the note is “polymyxin B 1 µg/mL”, the “bacterial growth OD600” value worked out at 0.487.

As for `O=C(c1ccccc1-n1cccn1)N1CCCC(Nc2ccc3c(c2)OCCO3)C1` (stereo not given), the “bacterial growth OD600” value (polymyxin B 1 µg/mL) stood at 0.911.

For the compound `CCc1nc2cc(C(=O)N3C[C@@H](C)O[C@@H](C)C3)cc(NC(=O)c3ccccc3OC)c2n1C`, under “polymyxin B 0.75 µg/mL”, the “bacterial growth OD600” value came to 0.867.

`Cc1nc(C)c(CN2CCCC2C(=O)Nc2ccc(-c3cscn3)cc2)nc1C` (stereo not given): the “bacterial growth OD600” value (polymyxin B 0.75 µg/mL) was determined as 0.956.

For `Cc1cnc(C(=O)N2CCCC(C(=O)c3ccc4c5c(cccc35)CC4)C2)cn1` (stereo not given), for the setting “polymyxin B 1 µg/mL”, the “bacterial growth OD600” value is 0.761.

As for `CC(C)CCC1(C2CCN(C(=O)CCc3cccs3)CC2)NC(=O)N(Cc2ccccn2)C1=O` (stereo not given), the “bacterial growth OD600” value (polymyxin B 0.75 µg/mL) was 0.896.
